Data taken from the supplement of paper PMC7661543.
± gives the standard deviation of the averaged measurements. The effect of the compound repeats well; differences between the knockouts mostly do not.

System: HCC-38
Assay: relative cell number vs DMSO control (72 h) (% of DMSO); higher = less growth inhibition (more cells)
Procedure: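 QMAP-Seq: a pool of 5 breast cancer cell lines (ZR-75-1, SKBR3, HCC-38, MDA-MB-231, BT-20), each carrying 12 doxycycline-inducible Cas9 sgRNA perturbations (11 knockouts plus non-targeting sgNT), was treated with compounds for 72 h at four 10-fold doses (10 nM-10 uM or 1 nM-1 uM range). Barcodes were amplified and sequenced, and cell number was interpolated from 293T spike-in standard curves. The result is expressed as % of the median of DMSO wells. Two biological replicates.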

COC(=O)/C=C/C(=O)OC [DimethylFumarate]
Conditions	relative cell number
sgRNA knockout: sgATF3, 10 nM	95.4 ± 8.2
sgRNA knockout: sgATF3, 100 nM	86.8 ± 10
sgRNA knockout: sgATF3, 1000 nM	96.8 ± 2.7
sgRNA knockout: sgATF3, 10000 nM	95.5 ± 21
sgRNA knockout: sgATF4, 10 nM	98.6 ± 4.7
sgRNA knockout: sgATF4, 100 nM	80 ± 2.9
sgRNA knockout: sgATF4, 1000 nM	90.9 ± 12
sgRNA knockout: sgATF4, 10000 nM	88.6 ± 24
sgRNA knockout: sgATF6, 10 nM	102 ± 16
sgRNA knockout: sgATF6, 100 nM	91 ± 4.9
sgRNA knockout: sgATF6, 1000 nM	114 ± 19
sgRNA knockout: sgATF6, 10000 nM	99.9 ± 17
sgRNA knockout: sgATG7, 10 nM	97.2 ± 1.2
sgRNA knockout: sgATG7, 100 nM	81.7 ± 9.6
sgRNA knockout: sgATG7, 1000 nM	93.7 ± 12
sgRNA knockout: sgATG7, 10000 nM	86.6 ± 9.6
sgRNA knockout: sgERN1, 10 nM	97.9 ± 2
sgRNA knockout: sgERN1, 100 nM	84.7 ± 6.4
sgRNA knockout: sgERN1, 1000 nM	92.3 ± 13
sgRNA knockout: sgERN1, 10000 nM	95 ± 7.1
sgRNA knockout: sgHSF1, 10 nM	92.9 ± 13
sgRNA knockout: sgHSF1, 100 nM	87.8 ± 7.2
sgRNA knockout: sgHSF1, 1000 nM	87.9 ± 2.8
sgRNA knockout: sgHSF1, 10000 nM	94.9 ± 1.5
sgRNA knockout: sgHSF2, 10 nM	93.9 ± 14
sgRNA knockout: sgHSF2, 100 nM	94.5 ± 4.6
sgRNA knockout: sgHSF2, 1000 nM	93.77 ± 0.84
sgRNA knockout: sgHSF2, 10000 nM	92.2 ± 14
sgRNA knockout: sgKEAP1, 10 nM	109 ± 31
sgRNA knockout: sgKEAP1, 100 nM	112 ± 5.2
sgRNA knockout: sgKEAP1, 1000 nM	101 ± 9.5
sgRNA knockout: sgKEAP1, 10000 nM	101 ± 18
sgRNA knockout: sgNFE2L2, 10 nM	90.4 ± 7.1
sgRNA knockout: sgNFE2L2, 100 nM	78.8 ± 1.4
sgRNA knockout: sgNFE2L2, 1000 nM	89.1 ± 6.7
sgRNA knockout: sgNFE2L2, 10000 nM	85.6 ± 19
sgRNA knockout: sgSLC35F2, 10 nM	88.4 ± 13
sgRNA knockout: sgSLC35F2, 100 nM	88.7 ± 9.4
sgRNA knockout: sgSLC35F2, 1000 nM	95.7 ± 7.6
sgRNA knockout: sgSLC35F2, 10000 nM	88.7 ± 20
sgRNA knockout: sgXBP1, 10 nM	94.86 ± 0.42
sgRNA knockout: sgXBP1, 100 nM	86.7 ± 11
sgRNA knockout: sgXBP1, 1000 nM	89.1 ± 9
sgRNA knockout: sgXBP1, 10000 nM	94.4 ± 22

CN1CCN(c2ccc(C(=O)Nc3n[nH]c4ccc(Cc5cc(F)cc(F)c5)cc34)c(NC3CCOCC3)c2)CC1 [Entrectinib]
Conditions	relative cell number
sgRNA knockout: sgATF3, 1 nM	94.58 ± 0.47
sgRNA knockout: sgATF3, 10 nM	102 ± 3.3
sgRNA knockout: sgATF3, 100 nM	97.6 ± 22
sgRNA knockout: sgATF3, 1000 nM	88.6 ± 1.4
sgRNA knockout: sgATF4, 1 nM	80.9 ± 1
sgRNA knockout: sgATF4, 10 nM	109 ± 1.7
sgRNA knockout: sgATF4, 100 nM	86.7 ± 18
sgRNA knockout: sgATF4, 1000 nM	81.4 ± 9.9
sgRNA knockout: sgATF6, 1 nM	97 ± 8
sgRNA knockout: sgATF6, 10 nM	116.7 ± 0.96
sgRNA knockout: sgATF6, 100 nM	92 ± 4.5
sgRNA knockout: sgATF6, 1000 nM	96.6 ± 17
sgRNA knockout: sgATG7, 1 nM	87 ± 4.1
sgRNA knockout: sgATG7, 10 nM	106.6 ± 0.13
sgRNA knockout: sgATG7, 100 nM	93.8 ± 23
sgRNA knockout: sgATG7, 1000 nM	77.6 ± 3
sgRNA knockout: sgERN1, 1 nM	90.6 ± 3
sgRNA knockout: sgERN1, 10 nM	104.7 ± 0.4
sgRNA knockout: sgERN1, 100 nM	97 ± 12
sgRNA knockout: sgERN1, 1000 nM	90.7 ± 13
sgRNA knockout: sgHSF1, 1 nM	94.6 ± 3.7
sgRNA knockout: sgHSF1, 10 nM	103 ± 5.5
sgRNA knockout: sgHSF1, 100 nM	98.1 ± 5.1
sgRNA knockout: sgHSF1, 1000 nM	98.7 ± 11
sgRNA knockout: sgHSF2, 1 nM	81.2 ± 1.9
sgRNA knockout: sgHSF2, 10 nM	106 ± 16
sgRNA knockout: sgHSF2, 100 nM	96.1 ± 19
sgRNA knockout: sgHSF2, 1000 nM	83.2 ± 14
sgRNA knockout: sgKEAP1, 1 nM	97.1 ± 10
sgRNA knockout: sgKEAP1, 10 nM	127 ± 19
sgRNA knockout: sgKEAP1, 100 nM	102 ± 7
sgRNA knockout: sgKEAP1, 1000 nM	84.3 ± 10
sgRNA knockout: sgNFE2L2, 1 nM	85.1 ± 2.7
sgRNA knockout: sgNFE2L2, 10 nM	104 ± 8.7
sgRNA knockout: sgNFE2L2, 100 nM	82.6 ± 23
sgRNA knockout: sgNFE2L2, 1000 nM	73.1 ± 2.7
sgRNA knockout: sgSLC35F2, 1 nM	88.02 ± 0.3
sgRNA knockout: sgSLC35F2, 10 nM	107 ± 5.1
sgRNA knockout: sgSLC35F2, 100 nM	92.5 ± 22
sgRNA knockout: sgSLC35F2, 1000 nM	93.5 ± 2.4
sgRNA knockout: sgXBP1, 1 nM	87.69 ± 0.46
sgRNA knockout: sgXBP1, 10 nM	96.6 ± 1.4
sgRNA knockout: sgXBP1, 100 nM	86.8 ± 26
sgRNA knockout: sgXBP1, 1000 nM	82.4 ± 2.5

CCOC(=O)[C@@]1(CCCCCCOc2ccc(Cl)cc2)CO1 [Etomoxir]
Conditions	relative cell number
sgRNA knockout: sgATF3, 10 nM	106 ± 16
sgRNA knockout: sgATF3, 100 nM	95 ± 14
sgRNA knockout: sgATF3, 1000 nM	105 ± 2.4
sgRNA knockout: sgATF3, 10000 nM	87 ± 4.2
sgRNA knockout: sgATF4, 10 nM	92.3 ± 11
sgRNA knockout: sgATF4, 100 nM	101 ± 21
sgRNA knockout: sgATF4, 1000 nM	107.2 ± 0.47
sgRNA knockout: sgATF4, 10000 nM	93.4 ± 6.5
sgRNA knockout: sgATF6, 10 nM	105 ± 6.2
sgRNA knockout: sgATF6, 100 nM	99.3 ± 5.7
sgRNA knockout: sgATF6, 1000 nM	108 ± 30
sgRNA knockout: sgATF6, 10000 nM	81.5 ± 2.5
sgRNA knockout: sgATG7, 10 nM	97.2 ± 11
sgRNA knockout: sgATG7, 100 nM	95.7 ± 2.9
sgRNA knockout: sgATG7, 1000 nM	104 ± 11
sgRNA knockout: sgATG7, 10000 nM	85.2 ± 8.6
sgRNA knockout: sgERN1, 10 nM	102 ± 22
sgRNA knockout: sgERN1, 100 nM	99 ± 9.1
sgRNA knockout: sgERN1, 1000 nM	109 ± 3
sgRNA knockout: sgERN1, 10000 nM	91.2 ± 3
sgRNA knockout: sgHSF1, 10 nM	107 ± 11
sgRNA knockout: sgHSF1, 100 nM	92.7 ± 4.9
sgRNA knockout: sgHSF1, 1000 nM	108 ± 13
sgRNA knockout: sgHSF1, 10000 nM	87.8 ± 12
sgRNA knockout: sgHSF2, 10 nM	106 ± 9.1
sgRNA knockout: sgHSF2, 100 nM	99 ± 4.9
sgRNA knockout: sgHSF2, 1000 nM	107 ± 1.2
sgRNA knockout: sgHSF2, 10000 nM	86.8 ± 1.2
sgRNA knockout: sgKEAP1, 10 nM	106.2 ± 0.65
sgRNA knockout: sgKEAP1, 100 nM	109 ± 16
sgRNA knockout: sgKEAP1, 1000 nM	112 ± 12
sgRNA knockout: sgKEAP1, 10000 nM	89 ± 29
sgRNA knockout: sgNFE2L2, 10 nM	90.1 ± 12
sgRNA knockout: sgNFE2L2, 100 nM	88.4 ± 8.8
sgRNA knockout: sgNFE2L2, 1000 nM	98.5 ± 3.3
sgRNA knockout: sgNFE2L2, 10000 nM	92.4 ± 1.1
sgRNA knockout: sgSLC35F2, 10 nM	90.9 ± 13
sgRNA knockout: sgSLC35F2, 100 nM	90.6 ± 8.2
sgRNA knockout: sgSLC35F2, 1000 nM	95.9 ± 7.8
sgRNA knockout: sgSLC35F2, 10000 nM	81.5 ± 5.2
sgRNA knockout: sgXBP1, 10 nM	99.7 ± 12
sgRNA knockout: sgXBP1, 100 nM	92.6 ± 9.1
sgRNA knockout: sgXBP1, 1000 nM	105 ± 3.7
sgRNA knockout: sgXBP1, 10000 nM	90.48 ± 0.39
